# Several values for one entry are separate records, joined by “and”; a condition that tells them apart may be missing. Identical values can stand only once. Counter-ions that a name gives are not always drawn. The list shows a part of the results. Most entries show no effect beyond the scatter of the controls.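 Differential scanning fluorimetry gave melting temperatures in a one-replicate pilot screen of a library of approved drugs plus clinical or known-target compounds. Hits increasing melting point at least 2 °C were the strongest stabilizers, while negative shifts signify destabilization.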
# Test system: SARS-CoV-2 main protease (Mpro, nsp5)
# Experiment: thermal shift ΔTm of Mpro relative to plate average Tm; higher = stronger thermal stabilization of Mpro (binding)
# Settings: 10 µM; protein concentration 1 µM
row,SMILES,thermal shift ΔTm of Mpro
1,CC(C)(O)CC(=O)NCCn1ccc2ncnc(Nc3ccc(Oc4cccc(C(F)(F)F)c4)c(Cl)c3)c21,0.711 °C
2,O=C1CSc2ccccc2N1Cc1cccc(C(F)(F)F)c1,-0.0225 °C
3,C[C@H](Nc1ncnc2nc[nH]c12)c1cc2cccc(Cl)c2c(=O)n1-c1ccccc1,1.53 °C
4,CCN1CCN(Cc2ccc(NC(=O)c3ccc(C)c(NC(=O)c4cncc(-c5cccs5)c4)c3)cc2C(F)(F)F)CC1,0.112 °C
5,O=[N+]([O-])c1ccc(O)c2ncccc12 [Nitroxoline],0.34 °C
6,N#CC[C@H](C1CCCC1)n1cc(-c2ncnc3[nH]ccc23)cn1,-0.0821 °C and -0.0714 °C and 0.138 °C
7,COc1cccc(NCC(F)Cn2c3ccc(Br)cc3c3cc(Br)ccc32)c1 (stereo not drawn),0.413 °C
8,CCCc1nn(C)c2c(=O)[nH]c(-c3cc(S(=O)(=O)N4CCN(C)CC4)ccc3OCC)nc12 [Sildenafil Citrate],0.103 °C
9,CN(C[C@@H]1COCCO1)S(=O)(=O)Nc1ccc2ccc3ncc(-c4cnn(C)c4)cc3c(=O)c2c1,0.0216 °C
10,NNC(=O)c1ccncc1.Nc1ccc(C(=O)O)c(O)c1 [Pasiniazid],-0.116 °C
11,O=C(CSc1nc2c(c(=O)n1-c1ccccc1)SCC2)Nc1ccc(-c2ccccc2)cn1,-0.148 °C
12,C[C@@H]1CN(c2c(F)c(F)c3c(=O)c(C(=O)O)cn(C4CC4)c3c2F)C[C@H](C)N1 [Orbifloxacin],0.255 °C
13,CCNC1(C(N)=O)CCN(c2ncnc3c2nc(-c2ccccc2Cl)n3-c2ccc(Cl)cc2)CC1 [Otenabant hydrochloride],0.0512 °C
14,CCOC(=O)CC(=O)N1CCSC1COc1ccccc1OC (stereo not drawn) [Moguisteine],-0.00904 °C
15,CNCc1ccc(C)c(NC(=O)c2ccc(Nc3nc(-c4ccccc4)c4ccccc4n3)cc2)c1,-0.0368 °C
16,CCCc1cc2c(N3CCN(C4=NCC(C)(C)S4)CC3)ncnc2s1 [MI-2 (Menin-MLL Inhibitor)],0.0684 °C
17,CCCCN1CCCC[C@H]1C(=O)Nc1c(C)cccc1C [Levobupivacaine],0.016 °C
18,CCCCN1CCCC[C@H]1C(=O)Nc1c(C)cccc1C [Levobupivacaine HCl],0.03 °C
19,O=C1Nc2ccc(Cl)cc2[C@@](C#CC2CC2)(C(F)(F)F)O1 [Efavirenz],-0.267 °C
20,Nc1ccc(C(=O)O)c(O)c1 [Sodium 4-Aminosalicylate],0.383 °C
21,Nc1ccc(C(=O)O)c(O)c1 [Sodium 4-aminosalicylate dihydrate],0.196 °C
22,Nc1ccc(C(=O)O)c(O)c1 [Aminopar],-0.0567 °C
23,O=C(O)C1(c2ccc(-c3ccc(Cl)c(Cl)c3)c(F)c2)CC1,-0.201 °C
24,COc1cc(CCc2cc(NC(=O)c3ccc(N4CC(C)NC(C)C4)cc3)n[nH]2)cc(OC)c1 (stereo not drawn),0.0487 °C
25,O=C(O)Cn1nnc(-c2cc(N3CCC(Oc4cc(F)ccc4Br)CC3)no2)n1,0.102 °C
26,O=C(O)c1ccccc1Nc1cccc(C(F)(F)F)c1 [Flufenamic acid],-0.0229 °C
27,c1ccc(-c2nn3c(c2-c2ccnc4cc(OCCN5CCOCC5)ccc24)CCC3)nc1,0.00241 °C

row,SMILES,thermal shift ΔTm of Mpro
1,CN1CCCCC1Cn1cc(C(=O)c2cc([N+](=O)[O-])ccc2I)c2ccccc21 (stereo not drawn),-0.0989 °C
2,O=C1O[C@H]([C@@H](O)CO)C(O)=C1O [Vitamin C],0.0649 °C
3,Clc1ccc(C(c2ccccc2Cl)C(Cl)Cl)cc1 (stereo not drawn) [Mitotane],-0.0769 °C
4,c1ccc(CNc2nc(N3CCOc4ccccc43)nc3c2CCCC3)cc1,0.15 °C
5,Cc1cccc(C)c1OCC(=O)N[C@@H](Cc1ccccc1)[C@@H](O)C[C@H](Cc1ccccc1)NC(=O)[C@H](C(C)C)N1CCCNC1=O [Lopinavir],-0.174 °C
6,O=C(O)C(=O)c1cn(Cc2ccccc2)c2ccc(-c3ccc(OC(F)(F)F)cc3)cc12 [Tiplaxtinin],-0.14 °C
7,CCOC(=O)c1csc(Nc2ccc(Cl)cc2)n1,0.13 °C
8,Nc1ccc(/N=N/c2ccccc2)c(N)n1 [Phenazopyridine HCl],-0.129 °C
9,CCC(=O)O[C@]1(C(=O)SCF)[C@H](C)C[C@H]2[C@@H]3C[C@H](F)C4=CC(=O)C=C[C@]4(C)[C@@]3(F)[C@@H](O)C[C@@]21C [Fluticasone propionate],0.149 °C
10,O=c1ccc2cc(O[C@@H]3O[C@H](CO)[C@@H](O)[C@H](O)[C@H]3O)c(O)cc2o1 [Esculin],0.241 °C
11,O=C(Nc1ccc(CN2CCOCC2)cc1)c1ccc(-c2cccc(Cl)c2)o1,-0.113 °C
12,CN1CCC(=C2c3ccccc3CCn3c(C=O)cnc32)CC1 [Alcaftadine],-0.247 °C
13,OCCN1CCN(CC/C=C2/c3ccccc3Sc3ccc(Cl)cc32)CC1 [Zuclopenthixol],-0.287 °C
14,Cc1[nH]nc2ccc(-c3cncc(OC[C@@H](N)Cc4ccccc4)c3)cc12,-0.00124 °C and 0.031 °C
15,C/C=C(/C)C(=O)O[C@H]1c2cc3c(c4c2[C@@]2(CO4)C(=O)C(OC)=C(OC)C=C2C[C@@H](C)[C@H]1C)OCO3 [Heteroclitin D],-0.0556 °C
16,Cc1cn(-c2cc(NC(=O)c3ccc(C)c(Nc4nccc(-c5cnccn5)n4)c3)cc(C(F)(F)F)c2)cn1 [Radotinib],0.13 °C
17,CC(C)[C@H](O)C(=O)N[C@@H](C)C(=O)N[C@@H]1C(=O)N(C)CCc2ccccc21,-0.0855 °C
18,O=CN1CC/C(=C/c2ccc3c(c2)OCO3)C1=O,-0.136 °C
19,CC(C)c1noc(N2CCC(COc3ccc(-c4ccc(S(C)(=O)=O)cc4)nc3)CC2)n1,-0.176 °C
20,O=C(NC1CCNCC1)c1n[nH]cc1NC(=O)c1c(Cl)cccc1Cl,-0.0418 °C and 0.633 °C
21,COc1ccc(CC2NCCc3cc(OC)c(OC)cc32)cc1OC (stereo not drawn) [Tetrahydropapaverine HCl],-0.0441 °C
22,O=C(/C=C/c1ccc(O)c(O)c1/C=C/c1ccc(O)c(O)c1)O[C@H](Cc1ccc(O)c(O)c1)C(=O)O [Salvianolic acid A],-0.00928 °C
23,CN(C)[C@@H](CCOc1cccc2ccccc12)c1ccccc1 [Dapoxetine HCl],0.0445 °C
24,CCCC(CCC)C(=O)O [Valproic acid sodium salt (Sodium valproate)],-0.0678 °C
25,CCCC(CCC)C(=O)O [Divalproex Sodium],-0.0936 °C
26,CN(C)CCCC1(c2ccc(F)cc2)OCc2cc(C#N)ccc21 (stereo not drawn) [Citalopram HBr],0.00563 °C
